No constants are given. Whether binding was seen depends on the method and setting. In cells and extracts the contact can be indirect. Some entries that bind do so weakly or less than the wild type.
Target: HCoV-OC43 N protein (HCoV-OC43) (UniProt P33469)
Test: co-immunoprecipitation with anti-S Ab, Western blot with anti-N mAb (FIG. 19B)

Chains of the proteins cited; added tags and fusions are not shown. Residues count along the entry.
UniProt P33469: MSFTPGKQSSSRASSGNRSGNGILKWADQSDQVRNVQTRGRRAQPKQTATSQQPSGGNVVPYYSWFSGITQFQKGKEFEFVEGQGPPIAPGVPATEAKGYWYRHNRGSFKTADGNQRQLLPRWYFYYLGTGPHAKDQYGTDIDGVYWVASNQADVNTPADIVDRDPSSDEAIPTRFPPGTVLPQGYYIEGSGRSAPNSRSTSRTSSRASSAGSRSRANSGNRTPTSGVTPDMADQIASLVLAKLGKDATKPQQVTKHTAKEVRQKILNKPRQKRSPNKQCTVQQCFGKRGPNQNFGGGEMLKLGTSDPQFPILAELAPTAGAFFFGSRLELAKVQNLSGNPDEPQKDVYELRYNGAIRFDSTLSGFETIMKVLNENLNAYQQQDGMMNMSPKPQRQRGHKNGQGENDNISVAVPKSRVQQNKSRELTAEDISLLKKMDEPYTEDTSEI
UniProt P36334, residues 14-1353: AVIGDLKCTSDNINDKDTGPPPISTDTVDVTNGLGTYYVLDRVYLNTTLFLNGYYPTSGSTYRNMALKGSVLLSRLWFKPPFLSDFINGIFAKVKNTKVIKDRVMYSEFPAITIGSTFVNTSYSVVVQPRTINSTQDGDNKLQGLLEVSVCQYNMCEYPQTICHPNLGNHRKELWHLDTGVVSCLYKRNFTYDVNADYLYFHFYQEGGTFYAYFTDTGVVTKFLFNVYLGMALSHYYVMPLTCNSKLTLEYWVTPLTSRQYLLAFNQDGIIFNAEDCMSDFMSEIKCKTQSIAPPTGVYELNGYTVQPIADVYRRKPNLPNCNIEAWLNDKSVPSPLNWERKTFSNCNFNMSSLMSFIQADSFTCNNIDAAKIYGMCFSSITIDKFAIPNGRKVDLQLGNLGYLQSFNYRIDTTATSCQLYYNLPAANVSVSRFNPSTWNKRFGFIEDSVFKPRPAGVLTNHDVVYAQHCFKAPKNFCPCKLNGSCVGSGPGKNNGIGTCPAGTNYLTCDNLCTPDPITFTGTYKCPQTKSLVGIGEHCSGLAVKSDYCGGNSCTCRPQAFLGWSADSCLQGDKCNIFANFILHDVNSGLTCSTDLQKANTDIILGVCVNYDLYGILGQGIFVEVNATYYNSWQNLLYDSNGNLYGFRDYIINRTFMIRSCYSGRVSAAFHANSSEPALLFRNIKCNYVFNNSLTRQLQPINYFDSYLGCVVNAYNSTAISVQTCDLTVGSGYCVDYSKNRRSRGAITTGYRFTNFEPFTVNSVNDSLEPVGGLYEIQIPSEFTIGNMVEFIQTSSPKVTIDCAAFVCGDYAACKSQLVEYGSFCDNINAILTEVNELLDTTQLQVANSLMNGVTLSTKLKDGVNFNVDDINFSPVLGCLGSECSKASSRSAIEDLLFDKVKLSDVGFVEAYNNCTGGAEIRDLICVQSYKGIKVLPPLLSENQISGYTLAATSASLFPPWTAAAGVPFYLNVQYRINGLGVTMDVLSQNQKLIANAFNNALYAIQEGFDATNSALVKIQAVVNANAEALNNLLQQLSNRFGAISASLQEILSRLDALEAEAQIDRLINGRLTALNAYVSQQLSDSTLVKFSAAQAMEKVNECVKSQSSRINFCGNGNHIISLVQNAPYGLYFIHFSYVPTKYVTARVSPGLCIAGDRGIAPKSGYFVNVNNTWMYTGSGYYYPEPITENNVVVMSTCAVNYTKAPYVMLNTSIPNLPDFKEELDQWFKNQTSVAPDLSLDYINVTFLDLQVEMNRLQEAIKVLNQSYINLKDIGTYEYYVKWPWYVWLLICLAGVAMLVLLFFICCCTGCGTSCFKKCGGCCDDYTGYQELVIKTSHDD

HCoV-OC43 S protein (from UniProt P36334 14-1353)
binding: binds

From patent US20230181681A1, “PEPTIDE FOR SUPPRESSING CORONAVIRUS AND USE THEREOF” (priority 2020, published 2023)
